In general, AC50 refers to the concentration at which the activity in the assay is half-maximal.

Our source for the cell number change and AC50 values is PubChem BioAssay AID2685 (National Center for Advancing Translational Sciences (NCATS), 2010).

The other results are listed elsewhere or left out. Shown are side measurements of this screen, not its main read-out; they come without a call. Compounds called inactive in the main read-out are mostly missing here. Words in brackets tell the shape of the fitted curve; partial curves, single points and poor fits give uncertain potencies.

The nature of the assay: qHTS Assay for Lipid Storage Modulators in Drosophila S3 Cells.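 On cell number change: cells counted by Cell Tracker Red CMTPX staining in the red channel.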 Conditions: BODIPY lipid droplet fluorescence, 18-24 h; for cell number change: measured here: cell count max response, cells fed with added oleic acid. Summed up:
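Drosophila S3 cells got compounds at several concentrations plus oleic acid (400 uM solution). Laser-scanning cytometry with 488 nm excitation read lipid droplets at 500-530 nm and cells at 575-640 nm. Percent activity was relative to 20 uM Triacsin C.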

Where [1] appears, read: measured here: lipid fluorescence (Fed channel) AC50, cells fed with added oleic acid.
The mark [2] stands for this setting: measured here: cell number channel AC50, cells fed with added oleic acid.

For the molecule `O=C(Nc1cc2c(cc1Cl)OCCCO2)c1ccco1`, the cell number change is 5.24%. In addition, the AC50 under setting [1] is 0.164 µM [falling, partial curve, poor fit]. For `CCCCC1C(=O)N(c2ccccc2)N(c2ccc(O)cc2)C1=O` (stereo not given), the cell number change was -75.9%. Under setting [2], the half-maximal activity concentration (AC50) was 29.1 µM [falling, partial curve, poor fit]. Besides, the AC50 under setting [1] is 29.1 µM [falling, single point]. Turning to `O=C1Nc2ccccc2C12OC1CCCCC1O2` (stereo not given), the cell number change is -1.75%. Besides, the AC50 under setting [1] was 1.16 µM [rising, single point]. For the molecule `Cc1nc(NC(=O)c2ccco2)sc1-c1csc(Nc2ccc(Cl)cc2)n1`, the cell number change is -25.9%. For the same molecule, the half-maximal activity concentration (AC50) under setting [1] was 25.9 µM [falling, single point].

As to `CCN(CC)CCCN1C(=O)C(=O)/C(=C(/O)c2ccc3c(c2)CC(C)O3)C1c1ccncc1` (stereo not given), the cell number change was -0.406%. Further, the concentration at half-maximal activity (AC50) under setting [1] was 5.8 µM [falling, full curve]. For the molecule `Cc1ccc(C)c(S(=O)(=O)N2CCN(CC(=O)NC(C)c3ccccc3)CC2)c1` (stereo not given), the cell number change is -5.36%. Under setting [1], the AC50 is 29.1 µM [falling, single point]. In the case of `CCc1ccc(S(=O)(=O)NCCc2cn3ccc(C)cc3n2)s1`, the AC50 under setting [2] is 0.651 µM [rising, full curve, poor fit].

Consider `CC(CNC(=O)COC(=O)c1ccco1)c1ccccc1` (stereo not given), for which the cell number change was -8.77%. For the same molecule, the half-maximal activity concentration (AC50) under setting [1] is 16.4 µM [falling, single point]. For `COCCNC(=S)N/N=C(\C)c1ccc(-n2ccnc2)cc1`, the cell number change was -1.97%. Besides, under setting [2], the half-maximal activity concentration (AC50) is 1.3 µM [rising, single point]. For the same molecule, the AC50 under setting [1] is 25.9 µM [rising, partial curve]. In the case of `O=C(COC(=O)c1ccc2[nH]c3c(c2c1)CCCC3)Nc1ccccc1`, the cell number change is -35.3%. Also, under setting [2], the AC50 was 29.1 µM [falling, single point]. `CC(=O)Nc1cccc(C(=O)/C=C/c2ccc(N(C)C)cc2)c1`: the cell number change is 98.9%. The concentration at half-maximal activity (AC50) under setting [2] was 20.6 µM [rising, partial curve]. For the same molecule, the AC50 under setting [1] was 16.4 µM [rising, single point]. Turning to `CC1(C)C(=O)Nc2ccccc2N1C(=O)CSc1nnc2ccccn12`, the cell number change is -51.9%. Consider `CCc1nnc(NC(=O)C(NS(=O)(=O)c2ccc3c(c2)OCCO3)C(C)C)s1` (stereo not given), for which the cell number change is -17.5%. Moreover, the AC50 under setting [2] was 0.103 µM [falling, full curve, poor fit]. In the case of `N#Cc1ccc(Oc2ccc(/C=N/O)cn2)cc1`, the cell number change is -14.2%. Besides, the AC50 under setting [1] is 1.16 µM [falling, full curve].

For `O=C(OCc1ccc(COC(=O)c2cccnc2Cl)cc1)c1cccnc1Cl`, the half-maximal activity concentration (AC50) under setting [1] was 0.291 µM [falling, single point].

Turning to `COc1ccc(CN(C2CCCC2)S(=O)(=O)c2ccc(-n3cnnn3)cc2)cc1`, the cell number change is -16.7%. Also, the AC50 under setting [1] is 0.00461 µM [rising, full curve, poor fit]. On to `CCSc1nnc(NC(=O)CSc2nnc(CNC(=O)c3ccccc3F)o2)s1`, for which the cell number change was determined as 7.44%.

Take `O=C(c1cc2ccccc2o1)N1CCN(CCOc2ccccc2)CC1`: the AC50 under setting [1] was 0.0058 µM [falling, full curve, poor fit]. As for `CC(=O)c1c(OCC(=O)O)ccc2c(C)cc(=O)oc12`, the cell number change was -7.37%. Further, the half-maximal activity concentration (AC50) under setting [2] was 0.82 µM [falling, partial curve, poor fit]. Also, the AC50 under setting [1] was 0.184 µM [falling, full curve, poor fit]. In the case of `OCc1cn(Cc2ccc(O)c3ncccc23)cn1`, the cell number change was 20.8%. Further, under setting [1], the AC50 was 18.4 µM [rising, single point]. Turning to `COc1ccc(NC(=O)C2CCC(=O)N2S(=O)(=O)c2ccc(C)cc2)c(OC)c1` (stereo not given), the half-maximal activity concentration (AC50) is 6.51 µM [falling, single point] under setting [2] and 2.06 µM [falling, partial curve, poor fit] under setting [1]. Turning to `CCCOc1cccc(C2/C(=C(/O)c3ccc(F)cc3)C(=O)C(=O)N2CCN(C)C)c1` (stereo not given), the cell number change was -0.816%. As to `Cc1ccc(NC(=O)c2ccccc2N(C)S(C)(=O)=O)cc1C`, the AC50 under setting [2] is 2.59 µM [rising, single point].

As to `CC(C)(CNC(=O)c1cc(Cl)c(O)c(Cl)c1)N1CCCCC1`, the cell number change was 10.5%.

In the case of `CCCCN(C(=O)c1cccc(S(=O)(=O)N2CCN(C)CC2)c1)c1c(N)n(CCC)c(=O)[nH]c1=O`, the cell number change was -4.5%. Consider `N#C/C(=N\Nc1ccc(S(=O)(=O)N2CCc3ccccc32)cc1)C(N)=S`, for which the cell number change came to 6.67%. Besides, the half-maximal activity concentration (AC50) under setting [2] is 0.0206 µM [falling, partial curve, poor fit]. Regarding `Cc1ccccc1OCC(=O)NNC(=O)c1ccc(-c2ccccc2)cc1`, the AC50 under setting [1] is 0.58 µM [rising, single point]. Consider `Cc1ccsc1C(=O)Nc1ccc(OCc2ccccc2)cc1`, for which the cell number change is 16.9%. In addition, the AC50 under setting [1] is 4.61 µM [rising, full curve, poor fit]. Regarding `Cc1ccc2c(c1)N(CC(=O)O)C(=O)CO2`, the cell number change is -31.9%. Also, the AC50 under setting [2] was 0.00651 µM [falling, full curve]. The concentration at half-maximal activity (AC50) under setting [1] is 0.00461 µM [falling, full curve, poor fit]. On to `O=C(NCCSc1ccccc1)c1cncc(Br)c1`, for which the cell number change amounted to 5.31%. Under setting [1], the AC50 is 0.00517 µM [falling, full curve, poor fit].

With `COc1ccc(C)cc1NC(=O)c1ccccc1N(C)S(=O)(=O)c1ccccc1`, the cell number change is -20.7%. Besides, the half-maximal activity concentration (AC50) under setting [1] is 3.26 µM [rising, single point].

Turning to `O=C(CCC(=O)Nc1ccc(Oc2ccccc2)cc1)NCCO`, the cell number change came out at 59.1%. Also, the AC50 under setting [2] is 14.6 µM [rising, partial curve]. Also, under setting [1], the AC50 is 0.00461 µM [falling, full curve, poor fit]. For the molecule `O=C(CSc1nnc(-c2ccc(Br)cc2)n1CCc1ccccc1)NC1CCS(=O)(=O)C1` (stereo not given), the cell number change turned out to be 9.99%. The concentration at half-maximal activity (AC50) under setting [1] was 1.64 µM [rising, full curve, poor fit].

As for `COc1ccc(-c2sc3ccc(N4CCOCC4)cc3c2-c2ccc(O)cc2)cc1`, the cell number change was -3.69%. For the molecule `CCC(=O)Nc1c2c(nc3c1CCC3)CCCC2`, the cell number change turned out to be 22%. The half-maximal activity concentration (AC50) under setting [1] is 29.1 µM [rising, single point]. As for `CCn1c(SCC(=O)Nc2nc(-c3ccccc3)cs2)nnc1-c1ccccc1`, the cell number change was found to be 22%. For the same molecule, the AC50 under setting [2] is 6.51 µM [rising, single point].

For the molecule `Cc1ccccc1-n1c(SCC(=O)NCc2cccs2)nnc1-c1ccncc1`, the cell number change is -4.49%. Under setting [2], the AC50 was 0.58 µM [rising, full curve, poor fit]. For `CN(C)C1=NC[C@H](Cc2ccccc2)N1CCC1CCCC1`, the cell number change turned out to be 17.7%. Besides, the half-maximal activity concentration (AC50) under setting [1] was 23.1 µM [rising, single point]. For `Cc1ccc(Nc2nc(N)nc(CCl)n2)cc1`, the cell number change was -1.68%. Besides, the concentration at half-maximal activity (AC50) under setting [1] was 0.146 µM [falling, full curve, poor fit].

Consider `Cc1c(NC(=S)NC(NC(=O)C(C)(C)C)C(Cl)(Cl)Cl)c(=O)n(-c2ccccc2)n1C` (stereo not given), for which the cell number change came to 32.2%. Moreover, the AC50 under setting [2] is 25.9 µM [rising, single point]. Further, the half-maximal activity concentration (AC50) under setting [1] is 0.103 µM [rising, full curve, poor fit]. As for `Cc1c(Cl)cccc1N=Cc1ccc([N+](=O)[O-])s1`, under setting [1], the AC50 was 29.1 µM [falling, single point]. Consider `CN1CCN(C(=O)c2ccc(-n3cccn3)nc2)CC1`, for which the cell number change was 48.9%. Further, the half-maximal activity concentration (AC50) under setting [2] is 0.116 µM [rising, full curve, poor fit]. For the same molecule, the AC50 under setting [1] was 29.1 µM [rising, partial curve, poor fit]. `CC1CCCCN1Cc1nc2c(c(=O)n(C)c(=O)n2C)n1CCc1ccccc1` (stereo not given): under setting [2], the concentration at half-maximal activity (AC50) is 3.66 µM [rising, single point]. Regarding `CCCCc1ccc(NC(=O)CN(C)CC(=O)Nc2ccccc2Cl)cc1`, the cell number change was 45.8%. In addition, the AC50 under setting [2] was 29.1 µM [rising, single point]. For the molecule `CCCOP(=O)(OCCC)C(Nc1cccc(C(F)(F)F)c1)c1ccc(C)cc1` (stereo not given), the cell number change is -19.8%. For the same molecule, under setting [1], the half-maximal activity concentration (AC50) was 29.1 µM [falling, single point]. With `CCOC(=O)CCSCC(=O)N1N=C(c2cccs2)CC1c1ccc(C)cc1` (stereo not given), the cell number change was -19%. The AC50 under setting [1] is 29.1 µM [falling, single point]. For `Cn1ncc(Cl)c1C(=O)NC1C2CC3CC(C2)CC1C3` (stereo not given), the cell number change is -6.37%. Also, the half-maximal activity concentration (AC50) under setting [1] is 29.1 µM [falling, single point]. Regarding `COc1cc2[nH]c(C(=O)N(C)Cc3ccccc3)cc2c(OC)c1OC`, the cell number change turned out to be 91%. The concentration at half-maximal activity (AC50) under setting [2] was 29.1 µM [rising, single point]. Regarding `Cc1onc(-c2ccccc2)c1C(=O)NCCc1ccc(S(N)(=O)=O)cc1`, the cell number change was 22.2%. For the same molecule, under setting [1], the concentration at half-maximal activity (AC50) is 18.4 µM [rising, single point]. Regarding `COc1ccccc1OC(C)C(=O)Nc1ccccc1C(=O)NCC1CCCO1` (stereo not given), the cell number change is -12.8%. Moreover, under setting [1], the half-maximal activity concentration (AC50) is 0.82 µM [falling, single point]. Turning to `CN(C)Cc1ccccc1Sc1ccccc1Br`, the cell number change came to 81.6%. The AC50 under setting [2] was 3.26 µM [falling, partial curve, poor fit]. On to `FC(F)Oc1ccccc1/C=N/n1cnc2ccccc21`, for which the cell number change came to 10.6%. Regarding `COc1cc(NC(=O)c2ccc(-c3ccc(Br)cc3)o2)ccc1NC(=O)C(C)C`, the cell number change was 0.132%. The AC50 under setting [1] is 0.058 µM [rising, full curve]. Consider `CC(C)Cc1nnc(NC(=O)CC(=O)Nc2ccccc2C(=O)O)s1`, for which the cell number change was determined as 21.6%. Further, the AC50 under setting [1] is 0.731 µM [falling, full curve, poor fit]. As for `CCOc1cc(C(=S)N2CCOCC2)ccc1OS(=O)(=O)c1ccc(C)cc1`, the cell number change is -33.5%. The half-maximal activity concentration (AC50) under setting [2] was 0.13 µM [falling, full curve, poor fit]. In addition, the AC50 under setting [1] was 0.58 µM [rising, single point].

As for `CCOC(=O)N1CCN(C(=O)c2cc3c(=O)n(C)c4ccccc4c3n2C)CC1`, the cell number change was 0.967%.

In the case of `COc1ccccc1C(=O)NC(=O)COC(=O)CNC(=O)c1ccc(Cl)c([N+](=O)[O-])c1`, the cell number change is -100%. For the same molecule, the AC50 under setting [2] was 4.11 µM [falling, single point].

On to `CN1CCN(S(=O)(=O)c2cc(Cl)c(Cl)cc2Cl)CC1`, for which the cell number change was -11.3%. In addition, the AC50 under setting [1] is 0.58 µM [rising, single point].

Consider `Cc1nn(-c2ccccc2)c2sc(C(=O)N(CC(=O)NC3CCCC3)Cc3ccco3)cc12`, for which the cell number change is -13.3%. Besides, the AC50 under setting [2] is 0.146 µM [rising, full curve, poor fit]. The half-maximal activity concentration (AC50) under setting [1] is 0.731 µM [rising, full curve]. In the case of `CC1=NNC(=O)/C1=C\c1cn(-c2ccccc2)nc1-c1cccs1`, the cell number change was -42%. Moreover, the AC50 under setting [1] was 7.31 µM [falling, full curve].
